No constants are given. Whether binding was seen depends on the method and setting. Binding seen in cells or lysates may run through a third protein. Some binding calls cover weakened binding; strength is not graded here.
Target: STAT2 (construct of Fig. 4A and 4B), P52630
Test: co-IP
Conditions: remark: other sources report otherwise

B1: IRF9 (construct of Fig. 4B), Q00978 1-393 (protein)
chain: MASGRARCTRKLRNWVVEQVESGQFPGVCWDDTAKTMFRIPWKHAGKQDFREDQDAAFFKAWAIFKGKYKEGDTGGPAVWKTRLRCALNKSSEFKEVPERGRMDVAEPYKVYQLLPPGIVSGQPGTQKVPSKRQHSSVSSERKEEEDAMQNCTLSPSVLQDSLNNEEEGASGGAVHSDIGSSSSSSSPEPQEVTDTTEAPFQGDQRSLEFLLPPEPDYSLLLTFIYNGRVVGEAQVQSLDCRLVAEPSGSESSMEQVLFPKPGPLEPTQRLLSQLERGILVASNPRGLFVQRLCPIPISWNAPQAPPGPGPHLLPSNECVELFRTAYFCRDLVRYFQGLGPPPKFQVTLNFWEESHGSSHTPQNLITVKMEQAFARYLLEQTPEQQAAILSLV
For B1, the binding was “binds”.
